We go through 42 sequences from publication PMC7819943, “Rice protein-binding microarrays: a tool to detect cis-acting elements near promoter regions in rice”.

The chains behind the UniProt entries cited, without tags or fusion partners.
UniProt Q0JBA9, entry or part of it: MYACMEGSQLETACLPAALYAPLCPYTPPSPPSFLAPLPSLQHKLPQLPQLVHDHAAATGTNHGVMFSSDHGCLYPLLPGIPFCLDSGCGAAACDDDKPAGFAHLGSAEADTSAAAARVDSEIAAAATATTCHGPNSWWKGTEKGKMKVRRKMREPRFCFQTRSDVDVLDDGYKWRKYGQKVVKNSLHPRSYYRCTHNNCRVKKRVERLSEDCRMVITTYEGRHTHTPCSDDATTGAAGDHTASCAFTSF

This is one part of the list.

The target of the assay is OsWRKY34 (Oryza sativa, UniProt Q0JBA9 1-250). Kind of assay: protein-binding microarray (RPBM); PBS, 2% BSA, 51.3 ng/ul salmon testes DNA, 50 uM zinc acetate, 200 nM TF, 25 C, 1 h; high values mean tight binding. The note with it: protein: recombinant; tags: N-terminal polyhistidine and DsRed monomer fusion (pET32a); label: CyDye5-dUTP incorporated in the synthesized complementary strand; 3' TTTTT single-stranded linker to array surface; dsDNA, one strand shown. In short, it runs like this: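 Polyhistidine-tagged DsRed fusions of transcription factors, joined at the N-terminus, were expressed in E. coli BL21-CodonPlus and isolated on Ni–NTA. They were incubated at 200 nM for 1 h at 25 °C on a custom Agilent array, double-stranded and BSA-blocked, in PBS with 2% BSA, salmon testes DNA and 50 µM zinc acetate. The binding signal is per-feature fluorescence intensity (arbitrary units) read on an Axon 4000B scanner after washing.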
Consider “AGAGCTTGTGTGGTGGTGGGGCATCAGTGTGTCAGTTGTGCGGAGTCACCTAGTGCAG”, for which the binding signal is 17100 fluorescence intensity (a.u.).
The result for “AACTGGATTTTTCCCGCCGGTTATTCGAATCGGGAACGCTCGGAGTCACCTAGTGCAG” reads 9640 fluorescence intensity (a.u.).
Regarding “CTCAGTAATCACTTCGCACATTAACTCTCTCTCTCTTTCTCGGAGTCACCTAGTGCAG”, the binding signal was 8910 fluorescence intensity (a.u.).
The result for “GTCGTGCCTATCTATCAGCAGCCTTGCCTGCGTGTATCGCCGGAGTCACCTAGTGCAG” reads 8770 fluorescence intensity (a.u.); that for “TTCTTTGGATTTGATTGGTGCCGCCTTTTTTCGCTATTGACGGAGTCACCTAGTGCAG”, 15600 fluorescence intensity (a.u.); that for “TAGTTTGCCTCCAAATACTTCCCGCCAAACTCAATTTTCCCGGAGTCACCTAGTGCAG”, 8740 fluorescence intensity (a.u.).
The result for “TCTGTTACTACTTTCTCTCCCATCCATTATTATTTCATTTCGGAGTCACCTAGTGCAG” reads 9760 fluorescence intensity (a.u.); that for “ATATCCACTGCTGTTTCTTTTACGCGTGTTAGTATTCTGACGGAGTCACCTAGTGCAG”, 14500 fluorescence intensity (a.u.).
As to “TGGCGCCGGCTTCCGCCGCATCATCGCTCACCGTTGAGCACGGAGTCACCTAGTGCAG”, the binding signal is 8060 fluorescence intensity (a.u.).
The result for “CTACTGACAAGTTTGTAGTTGTTTCTGCGTTTTTTATTCTCGGAGTCACCTAGTGCAG” reads 12300 fluorescence intensity (a.u.); that for “GCGTCGTCCTCGACTCCTCCGCCACCCGCCTGCTCCATCTCGGAGTCACCTAGTGCAG”, 8140 fluorescence intensity (a.u.).
For “ACCACGCCTTGTTGCTATACCAAACCACGAACAAATTAAACGGAGTCACCTAGTGCAG”, the binding signal was 8500 fluorescence intensity (a.u.).
As to “AAAAGAAACGCGTTGACCCTACAGATTATTATCCAGCTAGCGGAGTCACCTAGTGCAG”, the binding signal is 10100 fluorescence intensity (a.u.).
The result for “AGGGTGTTTCTCCTGTGGTATTTTTGTTCCGTTGAAAACGCGGAGTCACCTAGTGCAG” reads 10700 fluorescence intensity (a.u.); that for “GGTGGTTGGGTACTTGGGTTGGGTTTGGGTTTTTAGGTTTCGGAGTCACCTAGTGCAG”, 29100 fluorescence intensity (a.u.).
On to “CATCAGTTCACAAGCTGCCCTATGGATATGATCCTTTGTTCGGAGTCACCTAGTGCAG”, for which the binding signal was 8280 fluorescence intensity (a.u.).
The result for “GGTGTTGGAATCTCTCTCTTAAGGTCGTGTATATTTCTATCGGAGTCACCTAGTGCAG” reads 11000 fluorescence intensity (a.u.); that for “TTGACTGGGTTTTTCTTTTTTTTTTCTGTTTTGTTGTTTGCGGAGTCACCTAGTGCAG”, 10100 fluorescence intensity (a.u.); that for “ACTGACCGACCCCGCCATTTTCGTCGCCGTCCGTTCCCCTCGGAGTCACCTAGTGCAG”, 10600 fluorescence intensity (a.u.).
The result for “GTTCCTTCGCGCAGATCGCCGCCGCGTCTCATACTCTTCGCGGAGTCACCTAGTGCAG” reads 9590 fluorescence intensity (a.u.); that for “GTATGTGTGTCAGTCAAATCAAAATTTGGTCATTAATTTACGGAGTCACCTAGTGCAG”, 8210 fluorescence intensity (a.u.); that for “CTCGTCTCTATCGTTTACTTATTTTGGTATGTTTTTCCAGCGGAGTCACCTAGTGCAG”, 10300 fluorescence intensity (a.u.).
On to “CTCTTTTTACCTCATCTTCTCCTCTTGTTCGTCTTGCTCTCGGAGTCACCTAGTGCAG”, for which the binding signal was 10800 fluorescence intensity (a.u.).
For “ATTTGTGATGTTGTAGCCACCATGATTTACCACATTTCAGCGGAGTCACCTAGTGCAG”, the binding signal was 9260 fluorescence intensity (a.u.).
With “GGTGTTGGGTGTTTGTTCGTTGGTTCCGCTGCTGCTGTTGCGGAGTCACCTAGTGCAG”, the binding signal was 8180 fluorescence intensity (a.u.).
The result for “ACCTAGCAGTTTTCTGAAATGCCCAACTACCGTTCTCGTACGGAGTCACCTAGTGCAG” reads 9560 fluorescence intensity (a.u.).
The result for “CCTAACACCACTCGTTTTCCCTGCACCTGCACCTTTTTCTCGGAGTCACCTAGTGCAG” reads 8400 fluorescence intensity (a.u.); that for “GTTCTTTACCTACGCCCTCGCGCCTTCCGGGAACCGCTACCGGAGTCACCTAGTGCAG”, 9480 fluorescence intensity (a.u.).
The result for “AACTGGAAAAGTCTATCTGTTGTCCTCAGCCCGTCCTTCCCGGAGTCACCTAGTGCAG” reads 9160 fluorescence intensity (a.u.); that for “TATGGGCTGCTTGGTGCTTTCTTGTGTAAGTGTTCTCTCACGGAGTCACCTAGTGCAG”, 8840 fluorescence intensity (a.u.); that for “TGGTTGCTACTATACTACTGATCCTTGTTATGTACCATATCGGAGTCACCTAGTGCAG”, 8290 fluorescence intensity (a.u.).
Regarding “GGGTGGCATACAAACATGTTTTCAATTTTGCCTTTCGATCCGGAGTCACCTAGTGCAG”, the binding signal is 8600 fluorescence intensity (a.u.).
Turning to “ATCGCTGCTGTCTTCTCAAATTATAATTTACCGTTTTTAACGGAGTCACCTAGTGCAG”, the binding signal is 8090 fluorescence intensity (a.u.).
The result for “GCCACCGCCCAATCTCCCTCACCAGAGCTCCACTAACCAACGGAGTCACCTAGTGCAG” reads 8290 fluorescence intensity (a.u.); that for “ACACTTGCTTTCAACACGTTAGTTCTTCGTCAACGGAGCTCGGAGTCACCTAGTGCAG”, 8970 fluorescence intensity (a.u.).
“GGGGAGGGGCGCCGATTTCTCCATCTGGCGAGCAGAGCAGCGGAGTCACCTAGTGCAG”: the binding signal was 9250 fluorescence intensity (a.u.).
As for “GCTATCGGAGTATCGATTTTGTTGTGCTCAGTGATCTGTTCGGAGTCACCTAGTGCAG”, the binding signal is 8570 fluorescence intensity (a.u.).
The result for “CACCTAGATTAATTACTTCCTCACGAAGCACCAAGTCTTACGGAGTCACCTAGTGCAG” reads 8830 fluorescence intensity (a.u.); that for “CTCCACCTCCACCATTGATTTCCTCGCGCCACTCCACTCACGGAGTCACCTAGTGCAG”, 12200 fluorescence intensity (a.u.); that for “TCCCAATTGAATATTTGCACACATTTGTTTCTTTCCTTTGCGGAGTCACCTAGTGCAG”, 11400 fluorescence intensity (a.u.).
On to “CCTTAATAGTTCCTTCTGGTTCAGTGGCATTACCCAATGACGGAGTCACCTAGTGCAG”, for which the binding signal is 9980 fluorescence intensity (a.u.).
The result for “GTAGGAAAGCTACTCGGCCGTTGACCAAACAAATTAATGACGGAGTCACCTAGTGCAG” reads 10800 fluorescence intensity (a.u.).
